Data source: PubChem BioAssay AID1224830 (NIAID, 2016)
Purpose: 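Host factors that control LPS-induced TNF expression in human macrophages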 (primary screen). Cell system: human THP-1 monocytic leukaemia cells, TNF dual-luciferase reporter clone, PMA-differentiated to macrophage-like cells. Reagents: siRNA pool against human genes, 50 nM. Timing: LPS for 4 h, given about 3 days after siRNA transfection. Treatment: bacterial LPS (TLR4 ligand), 10 ng/ml. Measurement: 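TNF firefly reporter luminescence divided by renilla, normalised to the plate median, then turned into a robust z-score for each replicate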. Reading the numbers: TNF reporter robust z-score: higher = stronger TNF reporter response to LPS. Call rule: 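a well is active when its z-score exceeds 2.8 or falls below -1.5; control wells carry no call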.
Shown is an unselected part of about 18,000 reagents. Of all reagents, about 2,900 (16%) are marked active. 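Calls are made per well; low scores hint the gene aids the LPS response, high scores that it dampens it.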 Repeated entries: four replicate wells of each siRNA pool. Reagent sequences are not shown.

Silencing of ERAS (GeneID 3266) came out at: TNF reporter robust z-score 0.75; inactive. With knock-down of ERAS (GeneID 3266), the record shows TNF reporter robust z-score 0.72; inactive. ERAS (GeneID 3266) scored TNF reporter robust z-score -0.13; inactive. Against ERAS (GeneID 3266), the values are TNF reporter robust z-score -0.26; inactive. With knock-down of ZNF789 (GeneID 285989), the screen gave TNF reporter robust z-score -0.28; inactive. After knock-down of ZNF789 (GeneID 285989), the record shows TNF reporter robust z-score -0.06; inactive.

ZNF789 (GeneID 285989) scored TNF reporter robust z-score 0.44; inactive. With knock-down of ZNF789 (GeneID 285989), the record shows TNF reporter robust z-score -1.36; inactive. Depletion of SPMIP9 (GeneID 200523) resulted in: TNF reporter robust z-score -0.83; inactive. SPMIP9 (GeneID 200523) showed TNF reporter robust z-score 0.17; inactive. Knock-down of SPMIP9 (GeneID 200523) came out at: TNF reporter robust z-score 0.15; inactive. Depletion of SPMIP9 (GeneID 200523) gave: TNF reporter robust z-score 0.19; inactive.

With knock-down of PRORSD1P (GeneID 344405) the results were TNF reporter robust z-score 1.72; inactive. PRORSD1P (GeneID 344405) gave TNF reporter robust z-score 0.64; inactive. Against PRORSD1P (GeneID 344405), the values are TNF reporter robust z-score 0.62; inactive. PRORSD1P (GeneID 344405) scored TNF reporter robust z-score 0.15; inactive. With knock-down of INAVA (GeneID 55765), the record shows TNF reporter robust z-score 2.12; inactive. Depletion of INAVA (GeneID 55765) resulted in: TNF reporter robust z-score 0.55; inactive.

Silencing of INAVA (GeneID 55765) resulted in: TNF reporter robust z-score 1.85; inactive. With knock-down of INAVA (GeneID 55765), the screen gave TNF reporter robust z-score 1.14; inactive. After knock-down of NSMCE4A (GeneID 54780) the results were TNF reporter robust z-score -0.75; inactive. Against NSMCE4A (GeneID 54780) the deposit lists TNF reporter robust z-score 0.17; inactive. After knock-down of NSMCE4A (GeneID 54780), the record shows TNF reporter robust z-score -0.14; inactive. For NSMCE4A (GeneID 54780) the deposit lists TNF reporter robust z-score -0.09; inactive.

CHI3L1 (GeneID 1116) showed TNF reporter robust z-score 1.93; inactive. Depletion of CHI3L1 (GeneID 1116) came out at: TNF reporter robust z-score 0.79; inactive. For CHI3L1 (GeneID 1116) the deposit lists TNF reporter robust z-score 1.34; inactive. Against CHI3L1 (GeneID 1116) the deposit lists TNF reporter robust z-score -1.01; inactive. Depletion of ACTRT2 (GeneID 140625) resulted in: TNF reporter robust z-score 0.07; inactive. ACTRT2 (GeneID 140625) gave TNF reporter robust z-score -1.41; inactive.

Silencing of ACTRT2 (GeneID 140625) gave: TNF reporter robust z-score -1.67; active. ACTRT2 (GeneID 140625) gave TNF reporter robust z-score -0.62; inactive. Knock-down of KATNAL1 (GeneID 84056) came out at: TNF reporter robust z-score -0.57; inactive. KATNAL1 (GeneID 84056) showed TNF reporter robust z-score -0.52; inactive. Silencing of KATNAL1 (GeneID 84056) gave: TNF reporter robust z-score 0.07; inactive. NKX6-1 (GeneID 4825) showed TNF reporter robust z-score -0.64; inactive.

NKX6-1 (GeneID 4825) scored TNF reporter robust z-score -0.25; inactive. With knock-down of NKX6-1 (GeneID 4825), the screen gave TNF reporter robust z-score -0.97; inactive. With knock-down of NKX6-1 (GeneID 4825), the record shows TNF reporter robust z-score -0.41; inactive. Knock-down of OR1F1 (GeneID 4992) gave: TNF reporter robust z-score -0.04; inactive. Silencing of OR1F1 (GeneID 4992) resulted in: TNF reporter robust z-score 0.32; inactive. OR1F1 (GeneID 4992) scored TNF reporter robust z-score 0.49; inactive.

Depletion of OR1F1 (GeneID 4992) came out at: TNF reporter robust z-score -0.22; inactive. RBMS3 (GeneID 27303) scored TNF reporter robust z-score -0.98; inactive. Depletion of RBMS3 (GeneID 27303) gave: TNF reporter robust z-score -0.87; inactive. Against RBMS3 (GeneID 27303) the deposit lists TNF reporter robust z-score -1.15; inactive. RBMS3 (GeneID 27303) gave TNF reporter robust z-score -0.33; inactive. TRIM6 (GeneID 117854) scored TNF reporter robust z-score 0.08; inactive.

For TRIM6 (GeneID 117854), the entry reads TNF reporter robust z-score -0.67; inactive. Knock-down of TRIM6 (GeneID 117854) came out at: TNF reporter robust z-score -0.43; inactive. Against TRIM6 (GeneID 117854) the deposit lists TNF reporter robust z-score 0; inactive. For HDGFL3 (GeneID 50810), the values are TNF reporter robust z-score 0.16; inactive. With knock-down of HDGFL3 (GeneID 50810), the record shows TNF reporter robust z-score 0.05; inactive. Against HDGFL3 (GeneID 50810), the entry reads TNF reporter robust z-score 1.59; inactive.

Silencing of HDGFL3 (GeneID 50810) gave: TNF reporter robust z-score 0.6; inactive. Knock-down of TAS2R10 (GeneID 50839) gave: TNF reporter robust z-score -1.22; inactive. With knock-down of TAS2R10 (GeneID 50839), the record shows TNF reporter robust z-score -0.2; inactive. Knock-down of TAS2R10 (GeneID 50839) gave: TNF reporter robust z-score -0.37; inactive. For TAS2R10 (GeneID 50839), the entry reads TNF reporter robust z-score 0.25; inactive. For RBBP8NL (GeneID 140893), the entry reads TNF reporter robust z-score -0.96; inactive.

After knock-down of RBBP8NL (GeneID 140893), the record shows TNF reporter robust z-score 0.1; inactive. Knock-down of RBBP8NL (GeneID 140893) resulted in: TNF reporter robust z-score -0.12; inactive. For RBBP8NL (GeneID 140893), the entry reads TNF reporter robust z-score -0.95; inactive.
